Laboratory results reported in paper PMC12724269.

Sequences of proteins named here, by UniProt entry; tags and fusion partners are left off. A change or cut given only in a name is not applied to a line headed by its entry.
UniProt P67775: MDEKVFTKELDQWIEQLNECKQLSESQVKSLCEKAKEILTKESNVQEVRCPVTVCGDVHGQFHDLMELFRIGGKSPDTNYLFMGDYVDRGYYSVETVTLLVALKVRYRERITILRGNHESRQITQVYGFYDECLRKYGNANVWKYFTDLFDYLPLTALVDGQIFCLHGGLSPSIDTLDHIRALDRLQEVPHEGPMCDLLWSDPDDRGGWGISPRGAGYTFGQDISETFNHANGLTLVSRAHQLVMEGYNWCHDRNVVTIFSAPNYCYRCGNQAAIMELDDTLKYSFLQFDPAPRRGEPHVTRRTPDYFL

What was measured:
Experiment in all cases: co-IP; ANKLE2-3XFLAG complexes immunoprecipitated from lysates of doxycycline-treated transduced HeLa cells on Dynabead Protein G beads conjugated to mouse anti-FLAG, overnight at 4°C; lysis buffer 50 mM Tris-HCl pH 7.4, 150 mM NaCl, 1% Triton X-100, protease and phosphatase inhibitors, nuclease; blots for PP2A and total BAF
[1] = target: T1, Δ2-53-ANKLE2-3XFLAG (human) (UniProt Q86XL3)
T1 sequence: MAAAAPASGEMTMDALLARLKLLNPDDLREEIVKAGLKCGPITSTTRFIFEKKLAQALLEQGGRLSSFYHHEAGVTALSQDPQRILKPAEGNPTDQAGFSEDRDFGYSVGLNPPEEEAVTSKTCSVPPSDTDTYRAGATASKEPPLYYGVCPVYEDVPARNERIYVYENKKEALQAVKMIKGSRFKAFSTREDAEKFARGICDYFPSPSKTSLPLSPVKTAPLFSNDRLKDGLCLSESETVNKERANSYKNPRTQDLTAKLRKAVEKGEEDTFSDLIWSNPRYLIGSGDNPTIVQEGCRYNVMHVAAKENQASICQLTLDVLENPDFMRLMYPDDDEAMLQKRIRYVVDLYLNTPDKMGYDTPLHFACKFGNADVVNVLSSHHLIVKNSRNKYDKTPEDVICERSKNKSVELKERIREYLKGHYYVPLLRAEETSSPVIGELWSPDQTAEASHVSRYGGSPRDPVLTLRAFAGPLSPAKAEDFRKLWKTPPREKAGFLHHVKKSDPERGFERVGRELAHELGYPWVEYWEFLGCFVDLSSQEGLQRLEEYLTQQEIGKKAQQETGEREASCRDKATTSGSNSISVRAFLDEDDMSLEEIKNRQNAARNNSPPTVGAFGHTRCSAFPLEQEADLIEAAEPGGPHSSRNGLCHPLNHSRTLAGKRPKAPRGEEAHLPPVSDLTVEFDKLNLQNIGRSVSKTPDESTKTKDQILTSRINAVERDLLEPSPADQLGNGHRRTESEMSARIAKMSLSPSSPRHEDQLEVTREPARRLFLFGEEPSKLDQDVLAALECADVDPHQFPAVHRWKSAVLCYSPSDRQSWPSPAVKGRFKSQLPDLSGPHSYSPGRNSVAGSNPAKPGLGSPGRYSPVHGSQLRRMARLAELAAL

[2] = target: T2, full-length ANKLE2-3XFLAG (Ankyrin repeat and LEM domain-containing protein 2) (human) (UniProt Q86XL3)
T2 sequence: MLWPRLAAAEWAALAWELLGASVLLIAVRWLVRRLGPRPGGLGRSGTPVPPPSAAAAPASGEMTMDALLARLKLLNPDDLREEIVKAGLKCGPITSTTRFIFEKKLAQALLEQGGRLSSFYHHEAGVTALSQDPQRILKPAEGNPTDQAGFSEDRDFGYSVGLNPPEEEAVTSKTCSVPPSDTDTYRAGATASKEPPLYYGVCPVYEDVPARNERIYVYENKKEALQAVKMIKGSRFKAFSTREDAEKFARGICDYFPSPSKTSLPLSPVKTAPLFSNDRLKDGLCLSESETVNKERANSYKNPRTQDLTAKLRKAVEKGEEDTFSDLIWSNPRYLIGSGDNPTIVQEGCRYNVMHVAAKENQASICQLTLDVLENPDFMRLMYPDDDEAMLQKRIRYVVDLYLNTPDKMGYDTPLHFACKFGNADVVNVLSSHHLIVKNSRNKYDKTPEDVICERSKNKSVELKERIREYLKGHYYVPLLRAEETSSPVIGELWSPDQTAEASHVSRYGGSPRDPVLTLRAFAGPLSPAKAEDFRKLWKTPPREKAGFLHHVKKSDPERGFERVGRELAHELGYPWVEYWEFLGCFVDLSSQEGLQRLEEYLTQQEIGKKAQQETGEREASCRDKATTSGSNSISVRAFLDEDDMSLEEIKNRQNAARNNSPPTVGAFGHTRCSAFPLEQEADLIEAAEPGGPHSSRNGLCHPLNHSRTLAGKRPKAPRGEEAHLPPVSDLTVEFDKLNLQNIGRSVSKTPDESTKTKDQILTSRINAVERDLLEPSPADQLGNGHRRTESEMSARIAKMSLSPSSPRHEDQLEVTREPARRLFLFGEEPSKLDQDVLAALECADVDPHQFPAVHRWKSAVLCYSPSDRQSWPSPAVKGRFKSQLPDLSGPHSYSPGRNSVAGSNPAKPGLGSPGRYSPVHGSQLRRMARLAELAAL

[3] = target: T3, Δ2-252-ANKLE2-3XFLAG (human) (UniProt Q86XL3)
T3 sequence: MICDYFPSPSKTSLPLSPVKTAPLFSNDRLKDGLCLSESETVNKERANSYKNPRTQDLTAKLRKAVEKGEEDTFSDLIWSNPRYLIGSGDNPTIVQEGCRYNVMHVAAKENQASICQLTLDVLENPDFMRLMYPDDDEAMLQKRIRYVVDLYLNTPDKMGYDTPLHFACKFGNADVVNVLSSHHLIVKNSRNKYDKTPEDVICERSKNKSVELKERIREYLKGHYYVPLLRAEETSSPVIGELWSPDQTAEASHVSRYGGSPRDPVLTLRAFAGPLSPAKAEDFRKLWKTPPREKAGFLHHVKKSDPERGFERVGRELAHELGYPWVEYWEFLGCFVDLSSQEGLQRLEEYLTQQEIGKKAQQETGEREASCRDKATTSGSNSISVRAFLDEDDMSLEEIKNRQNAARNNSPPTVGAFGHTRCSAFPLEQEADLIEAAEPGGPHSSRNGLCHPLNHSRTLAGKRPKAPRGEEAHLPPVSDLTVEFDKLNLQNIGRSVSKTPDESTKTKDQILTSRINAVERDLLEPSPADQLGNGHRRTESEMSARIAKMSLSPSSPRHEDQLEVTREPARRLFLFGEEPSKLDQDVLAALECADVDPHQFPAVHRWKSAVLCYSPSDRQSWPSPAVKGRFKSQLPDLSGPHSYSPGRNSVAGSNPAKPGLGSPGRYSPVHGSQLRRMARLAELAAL

[4] = target: T4, Δ2-63-ANKLE2-3XFLAG (human) (UniProt Q86XL3)
T4 sequence: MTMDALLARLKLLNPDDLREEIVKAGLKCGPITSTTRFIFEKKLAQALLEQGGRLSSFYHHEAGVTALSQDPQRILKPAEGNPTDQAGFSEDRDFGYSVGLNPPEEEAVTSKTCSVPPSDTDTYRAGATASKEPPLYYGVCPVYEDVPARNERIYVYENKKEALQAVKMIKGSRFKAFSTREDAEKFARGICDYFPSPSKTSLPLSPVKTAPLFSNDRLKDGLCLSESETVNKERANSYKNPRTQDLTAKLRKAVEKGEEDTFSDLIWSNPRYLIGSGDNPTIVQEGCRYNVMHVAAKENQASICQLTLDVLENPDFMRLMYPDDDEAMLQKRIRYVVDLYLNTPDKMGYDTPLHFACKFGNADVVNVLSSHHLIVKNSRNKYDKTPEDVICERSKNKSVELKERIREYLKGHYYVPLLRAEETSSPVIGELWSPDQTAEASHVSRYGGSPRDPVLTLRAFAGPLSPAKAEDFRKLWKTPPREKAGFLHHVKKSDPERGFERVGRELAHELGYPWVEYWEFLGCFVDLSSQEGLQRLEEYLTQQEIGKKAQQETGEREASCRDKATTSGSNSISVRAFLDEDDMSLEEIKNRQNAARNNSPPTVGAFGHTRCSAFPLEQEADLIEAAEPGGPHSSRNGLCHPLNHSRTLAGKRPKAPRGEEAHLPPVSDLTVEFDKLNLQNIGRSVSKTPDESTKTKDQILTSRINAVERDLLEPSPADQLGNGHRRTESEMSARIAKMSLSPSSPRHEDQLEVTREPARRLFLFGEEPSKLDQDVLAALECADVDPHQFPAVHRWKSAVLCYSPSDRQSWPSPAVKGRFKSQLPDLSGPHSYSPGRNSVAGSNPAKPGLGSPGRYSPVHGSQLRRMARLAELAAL

[5] = target: T5, Δ2-117-ANKLE2-3XFLAG (human) (UniProt Q86XL3)
T5 sequence: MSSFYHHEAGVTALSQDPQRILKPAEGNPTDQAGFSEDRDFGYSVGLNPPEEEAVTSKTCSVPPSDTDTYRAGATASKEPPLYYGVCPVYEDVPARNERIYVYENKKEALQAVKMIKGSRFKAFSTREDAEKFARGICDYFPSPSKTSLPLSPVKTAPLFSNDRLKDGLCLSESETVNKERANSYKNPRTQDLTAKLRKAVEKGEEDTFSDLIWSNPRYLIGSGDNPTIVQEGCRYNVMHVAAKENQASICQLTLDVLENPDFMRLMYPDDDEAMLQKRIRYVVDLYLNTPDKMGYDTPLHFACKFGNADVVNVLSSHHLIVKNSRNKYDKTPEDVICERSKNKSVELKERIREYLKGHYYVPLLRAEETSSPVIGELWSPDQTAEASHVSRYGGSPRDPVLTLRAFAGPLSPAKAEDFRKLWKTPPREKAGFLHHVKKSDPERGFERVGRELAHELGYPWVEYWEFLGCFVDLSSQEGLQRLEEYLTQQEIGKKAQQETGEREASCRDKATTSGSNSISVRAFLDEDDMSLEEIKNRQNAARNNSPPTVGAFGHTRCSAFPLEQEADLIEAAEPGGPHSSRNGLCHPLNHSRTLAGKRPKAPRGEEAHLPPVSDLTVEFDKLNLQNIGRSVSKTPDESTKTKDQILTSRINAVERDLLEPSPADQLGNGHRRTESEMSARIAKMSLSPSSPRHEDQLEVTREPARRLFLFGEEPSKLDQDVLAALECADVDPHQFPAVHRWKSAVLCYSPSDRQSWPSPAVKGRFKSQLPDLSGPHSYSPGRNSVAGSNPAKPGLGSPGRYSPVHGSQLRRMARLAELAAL

binding [1]: binds
binding [2]: binds
binding [3]: no binding
binding [4]: binds
binding [5]: binds
Substance: serine/threonine protein phosphatase 2A (PP2A) (from UniProt P67775) (enzyme)

These are yes or no findings as the source states them, for the method shown. In cells and extracts the contact can be indirect. For some assays here: Binding can be weak; no strength is given. Tags and fused reporters may be left off the sequences shown.
